For the test, the target named is RhoA (mouse (endogenous in ZW13-2 cells and C57BL/6J brain)) (UniProt Q9QUI0). The test can be described thus: co-IP.

Sequences of proteins named here, by UniProt entry; tags and fusion partners are left off.
UniProt Q9QUI0: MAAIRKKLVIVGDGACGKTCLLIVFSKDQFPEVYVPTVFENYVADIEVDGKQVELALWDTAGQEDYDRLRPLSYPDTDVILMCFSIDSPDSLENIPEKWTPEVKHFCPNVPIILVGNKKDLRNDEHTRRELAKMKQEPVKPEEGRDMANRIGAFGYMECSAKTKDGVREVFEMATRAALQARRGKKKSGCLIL

These are yes or no findings as the source states them, for the method shown. Binding seen in cells or lysates may run through a third protein. Some entries that bind do so weakly or less than the wild type.

On to “prion protein (from UniProt P04925 23-230)”, for which the binding result was “binds”.
